This is one part of the list. Most values lie at the level of the controls, where differences are scatter.

Protein sequences, listed by entry. Tags and fused reporters are not part of them. Lines headed by an entry give the natural chain unless they say otherwise; changes in a name come on top.
UniProt Q96AV8: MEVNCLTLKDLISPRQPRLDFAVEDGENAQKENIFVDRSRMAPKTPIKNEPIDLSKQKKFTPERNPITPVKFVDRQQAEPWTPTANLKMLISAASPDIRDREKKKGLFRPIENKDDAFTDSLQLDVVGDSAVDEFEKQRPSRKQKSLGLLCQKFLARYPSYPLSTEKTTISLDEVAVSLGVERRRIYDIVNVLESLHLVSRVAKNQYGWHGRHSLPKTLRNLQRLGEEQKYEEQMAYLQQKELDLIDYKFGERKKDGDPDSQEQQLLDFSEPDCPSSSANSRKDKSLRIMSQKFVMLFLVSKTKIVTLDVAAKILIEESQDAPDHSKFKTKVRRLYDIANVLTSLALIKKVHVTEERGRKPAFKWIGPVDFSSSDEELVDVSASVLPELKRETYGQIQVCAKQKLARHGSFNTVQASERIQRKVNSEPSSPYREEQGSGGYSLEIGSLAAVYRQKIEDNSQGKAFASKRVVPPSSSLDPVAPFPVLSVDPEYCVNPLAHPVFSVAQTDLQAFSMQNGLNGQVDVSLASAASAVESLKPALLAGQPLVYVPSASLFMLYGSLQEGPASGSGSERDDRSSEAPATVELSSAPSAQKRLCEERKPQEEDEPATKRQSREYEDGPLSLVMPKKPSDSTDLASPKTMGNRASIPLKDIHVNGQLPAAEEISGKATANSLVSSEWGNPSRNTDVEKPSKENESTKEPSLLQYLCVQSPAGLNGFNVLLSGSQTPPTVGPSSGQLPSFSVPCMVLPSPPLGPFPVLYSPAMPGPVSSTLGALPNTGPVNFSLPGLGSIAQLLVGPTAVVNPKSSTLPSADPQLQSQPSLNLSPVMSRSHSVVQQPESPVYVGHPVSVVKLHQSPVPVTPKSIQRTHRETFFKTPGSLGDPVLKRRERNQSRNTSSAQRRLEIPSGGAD
UniProt Q96FZ2: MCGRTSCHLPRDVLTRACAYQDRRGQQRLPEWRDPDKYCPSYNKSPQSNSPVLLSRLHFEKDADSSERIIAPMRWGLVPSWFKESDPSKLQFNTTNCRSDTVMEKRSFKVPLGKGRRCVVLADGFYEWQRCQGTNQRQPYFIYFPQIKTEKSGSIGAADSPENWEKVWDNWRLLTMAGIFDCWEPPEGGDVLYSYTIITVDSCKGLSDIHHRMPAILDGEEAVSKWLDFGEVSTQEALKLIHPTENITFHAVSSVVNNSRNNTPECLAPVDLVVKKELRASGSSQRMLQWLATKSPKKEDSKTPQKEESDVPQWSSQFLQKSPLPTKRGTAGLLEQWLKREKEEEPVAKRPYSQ
UniProt Q92831, whole entry, looked up: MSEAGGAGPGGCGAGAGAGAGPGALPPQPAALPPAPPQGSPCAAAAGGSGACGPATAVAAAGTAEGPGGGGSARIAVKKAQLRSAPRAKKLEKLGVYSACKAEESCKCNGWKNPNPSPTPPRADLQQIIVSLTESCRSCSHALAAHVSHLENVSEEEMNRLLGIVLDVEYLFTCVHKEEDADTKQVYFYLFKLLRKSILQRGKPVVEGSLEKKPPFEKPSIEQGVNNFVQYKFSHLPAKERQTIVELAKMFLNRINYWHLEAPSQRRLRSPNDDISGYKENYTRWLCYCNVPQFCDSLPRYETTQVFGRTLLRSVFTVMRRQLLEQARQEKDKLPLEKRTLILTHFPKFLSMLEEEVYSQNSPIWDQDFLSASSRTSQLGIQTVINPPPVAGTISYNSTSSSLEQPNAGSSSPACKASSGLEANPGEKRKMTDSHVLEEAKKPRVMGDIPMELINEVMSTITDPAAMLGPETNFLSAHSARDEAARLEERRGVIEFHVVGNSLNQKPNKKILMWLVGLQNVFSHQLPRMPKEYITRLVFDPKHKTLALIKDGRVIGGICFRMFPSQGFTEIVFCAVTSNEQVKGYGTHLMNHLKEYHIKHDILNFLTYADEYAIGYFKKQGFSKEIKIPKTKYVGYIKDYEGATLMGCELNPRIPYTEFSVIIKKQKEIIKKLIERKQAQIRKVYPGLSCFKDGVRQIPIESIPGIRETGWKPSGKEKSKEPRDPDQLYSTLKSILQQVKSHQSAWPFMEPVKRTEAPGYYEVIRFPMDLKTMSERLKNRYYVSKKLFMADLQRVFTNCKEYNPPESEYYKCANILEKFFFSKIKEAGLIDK
UniProt Q96BA8: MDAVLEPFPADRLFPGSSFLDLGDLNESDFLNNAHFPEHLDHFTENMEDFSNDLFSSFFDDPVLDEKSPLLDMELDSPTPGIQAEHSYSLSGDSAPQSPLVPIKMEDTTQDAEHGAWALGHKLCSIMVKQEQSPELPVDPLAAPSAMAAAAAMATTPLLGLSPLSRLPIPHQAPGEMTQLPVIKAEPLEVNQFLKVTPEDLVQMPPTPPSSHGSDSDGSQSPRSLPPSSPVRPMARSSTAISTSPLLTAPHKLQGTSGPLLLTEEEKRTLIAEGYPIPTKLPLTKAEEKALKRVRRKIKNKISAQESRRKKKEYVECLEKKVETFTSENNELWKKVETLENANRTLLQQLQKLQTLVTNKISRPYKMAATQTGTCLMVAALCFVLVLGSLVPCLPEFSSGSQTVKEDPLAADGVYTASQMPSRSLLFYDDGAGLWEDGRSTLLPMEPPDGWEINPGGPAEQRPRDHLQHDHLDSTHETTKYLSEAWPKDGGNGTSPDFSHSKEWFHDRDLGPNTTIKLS
UniProt Q92947: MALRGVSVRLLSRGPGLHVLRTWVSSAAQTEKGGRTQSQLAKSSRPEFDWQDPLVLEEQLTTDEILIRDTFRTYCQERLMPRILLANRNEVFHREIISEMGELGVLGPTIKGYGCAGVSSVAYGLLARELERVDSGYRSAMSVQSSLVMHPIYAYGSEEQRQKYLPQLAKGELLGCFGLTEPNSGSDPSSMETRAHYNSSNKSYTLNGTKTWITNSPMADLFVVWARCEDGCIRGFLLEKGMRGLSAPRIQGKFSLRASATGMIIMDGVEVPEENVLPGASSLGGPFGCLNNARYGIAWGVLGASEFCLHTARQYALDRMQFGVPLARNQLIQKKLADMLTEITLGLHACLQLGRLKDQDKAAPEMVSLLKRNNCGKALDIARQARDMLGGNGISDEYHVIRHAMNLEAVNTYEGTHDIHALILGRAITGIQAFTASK
UniProt Q96GA3: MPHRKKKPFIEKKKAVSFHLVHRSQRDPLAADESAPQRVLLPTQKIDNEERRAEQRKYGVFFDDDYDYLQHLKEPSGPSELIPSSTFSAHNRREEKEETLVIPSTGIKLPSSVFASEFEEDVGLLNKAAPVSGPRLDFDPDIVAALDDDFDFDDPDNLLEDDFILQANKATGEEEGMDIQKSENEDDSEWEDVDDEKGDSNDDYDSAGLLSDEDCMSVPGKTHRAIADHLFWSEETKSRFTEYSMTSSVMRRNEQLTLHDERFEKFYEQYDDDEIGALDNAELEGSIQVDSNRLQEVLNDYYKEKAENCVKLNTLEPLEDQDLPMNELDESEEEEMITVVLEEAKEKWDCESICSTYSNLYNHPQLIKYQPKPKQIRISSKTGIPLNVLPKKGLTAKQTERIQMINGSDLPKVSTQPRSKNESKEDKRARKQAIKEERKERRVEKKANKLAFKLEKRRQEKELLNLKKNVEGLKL
UniProt Q92995: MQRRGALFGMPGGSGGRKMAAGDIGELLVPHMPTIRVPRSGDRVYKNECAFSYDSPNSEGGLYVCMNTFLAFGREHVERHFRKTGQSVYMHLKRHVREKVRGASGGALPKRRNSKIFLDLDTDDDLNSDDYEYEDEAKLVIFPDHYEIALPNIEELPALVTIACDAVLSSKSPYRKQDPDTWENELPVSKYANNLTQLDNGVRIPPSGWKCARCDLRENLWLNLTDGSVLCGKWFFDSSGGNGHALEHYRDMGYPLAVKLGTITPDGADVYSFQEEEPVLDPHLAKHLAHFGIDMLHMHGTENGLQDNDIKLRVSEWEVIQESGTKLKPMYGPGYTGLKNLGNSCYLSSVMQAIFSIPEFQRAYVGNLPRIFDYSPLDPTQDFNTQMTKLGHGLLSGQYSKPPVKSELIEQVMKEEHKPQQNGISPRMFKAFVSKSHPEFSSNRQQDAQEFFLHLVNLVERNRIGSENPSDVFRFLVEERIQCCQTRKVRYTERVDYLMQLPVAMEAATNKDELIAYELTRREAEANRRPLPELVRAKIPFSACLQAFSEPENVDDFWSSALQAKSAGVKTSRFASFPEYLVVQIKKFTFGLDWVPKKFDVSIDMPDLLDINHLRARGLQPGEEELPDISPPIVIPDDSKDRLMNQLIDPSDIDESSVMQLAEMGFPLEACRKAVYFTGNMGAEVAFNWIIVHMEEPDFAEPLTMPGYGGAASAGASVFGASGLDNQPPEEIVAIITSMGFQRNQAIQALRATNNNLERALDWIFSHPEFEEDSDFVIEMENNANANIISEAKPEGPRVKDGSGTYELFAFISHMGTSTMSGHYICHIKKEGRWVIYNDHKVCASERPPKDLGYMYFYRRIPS
UniProt Q96CT7: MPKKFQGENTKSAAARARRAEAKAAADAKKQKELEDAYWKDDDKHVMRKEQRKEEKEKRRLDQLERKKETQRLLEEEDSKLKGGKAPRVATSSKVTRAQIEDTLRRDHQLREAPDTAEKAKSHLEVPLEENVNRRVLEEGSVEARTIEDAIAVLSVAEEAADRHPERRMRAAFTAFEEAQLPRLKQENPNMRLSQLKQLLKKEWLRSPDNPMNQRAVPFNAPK
UniProt Q96EU6: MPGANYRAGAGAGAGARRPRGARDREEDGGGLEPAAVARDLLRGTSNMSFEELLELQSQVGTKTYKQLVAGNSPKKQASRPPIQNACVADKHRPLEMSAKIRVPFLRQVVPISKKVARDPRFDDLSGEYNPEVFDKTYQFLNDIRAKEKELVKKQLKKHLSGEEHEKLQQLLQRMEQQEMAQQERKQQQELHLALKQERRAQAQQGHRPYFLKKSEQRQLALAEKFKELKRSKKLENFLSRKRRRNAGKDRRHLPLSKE
UniProt Q92973: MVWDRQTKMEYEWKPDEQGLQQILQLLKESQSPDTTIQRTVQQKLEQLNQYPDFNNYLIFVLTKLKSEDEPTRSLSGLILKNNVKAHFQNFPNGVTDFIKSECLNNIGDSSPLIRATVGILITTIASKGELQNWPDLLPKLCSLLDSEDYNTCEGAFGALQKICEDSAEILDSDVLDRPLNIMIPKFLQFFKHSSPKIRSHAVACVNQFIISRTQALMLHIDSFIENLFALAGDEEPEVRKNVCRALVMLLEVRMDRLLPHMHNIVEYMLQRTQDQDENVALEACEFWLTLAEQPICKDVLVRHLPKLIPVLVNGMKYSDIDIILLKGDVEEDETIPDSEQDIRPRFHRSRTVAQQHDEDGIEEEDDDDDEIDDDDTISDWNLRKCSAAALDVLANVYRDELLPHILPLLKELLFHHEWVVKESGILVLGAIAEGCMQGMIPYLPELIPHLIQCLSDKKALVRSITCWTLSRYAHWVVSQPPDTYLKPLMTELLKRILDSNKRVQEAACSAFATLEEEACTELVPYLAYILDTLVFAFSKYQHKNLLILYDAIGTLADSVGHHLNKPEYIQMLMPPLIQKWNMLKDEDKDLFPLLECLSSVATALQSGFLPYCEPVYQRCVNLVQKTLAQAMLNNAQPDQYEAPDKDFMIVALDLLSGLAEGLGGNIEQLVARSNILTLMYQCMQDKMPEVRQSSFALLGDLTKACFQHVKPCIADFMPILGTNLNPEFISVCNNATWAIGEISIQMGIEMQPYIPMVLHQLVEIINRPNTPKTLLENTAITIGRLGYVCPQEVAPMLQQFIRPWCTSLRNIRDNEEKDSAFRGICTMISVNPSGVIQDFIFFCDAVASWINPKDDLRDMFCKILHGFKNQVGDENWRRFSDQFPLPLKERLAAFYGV
UniProt Q96DX7: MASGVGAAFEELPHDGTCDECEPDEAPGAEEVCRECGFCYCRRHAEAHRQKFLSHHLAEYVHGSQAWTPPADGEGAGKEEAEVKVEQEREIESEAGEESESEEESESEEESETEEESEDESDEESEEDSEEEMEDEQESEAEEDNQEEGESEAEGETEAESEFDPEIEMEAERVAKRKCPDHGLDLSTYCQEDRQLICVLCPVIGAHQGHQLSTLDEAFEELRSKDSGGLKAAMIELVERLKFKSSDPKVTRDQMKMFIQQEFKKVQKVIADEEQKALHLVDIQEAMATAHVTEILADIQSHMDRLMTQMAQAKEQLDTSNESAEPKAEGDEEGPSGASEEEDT
UniProt Q96FT9: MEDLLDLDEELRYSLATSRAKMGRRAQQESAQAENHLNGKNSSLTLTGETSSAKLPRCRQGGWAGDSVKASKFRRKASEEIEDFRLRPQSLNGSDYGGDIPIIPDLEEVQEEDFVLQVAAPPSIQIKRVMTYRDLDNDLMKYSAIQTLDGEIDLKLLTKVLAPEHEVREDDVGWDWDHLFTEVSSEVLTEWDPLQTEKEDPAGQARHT

Compound in this assay: CN[C@@H]1C[C@H]2O[C@@](C)([C@@H]1OC)n1c3ccccc3c3c4c(c5c6ccccc6n2c5c31)C(=O)NC4 [staurosporine]
Description: log2 fold change of tryptic peptide abundance, ligand vs vehicle (limited proteolysis) (log2 ratio); higher = more trypsin-susceptible (destabilized). The note with it: ligand concentration: 20 uM; sample: K562 cleared lysate; digestion: 4 min, 22 C (HT-PELSA RT4min, Orbitrap Astral).
For “UniProt Q96DE5 (peptide sequence: KALFTYPK, peptide start residue: 33)”, the log2 fold change is -0.0661. The result for “FAM104A (peptide sequence: SFHPPAAMSER, peptide start residue: 60) (UniProt Q969W3)” reads 0.559; that for “Sirt1 (peptide sequence: SPGEPGGAAPER, peptide start residue: 47) (UniProt Q96EB6)”, -0.178.

For “UniProt Q96EM0 (peptide sequence: FALDFGLVPAPPAGTR, peptide start residue: 114)”, the log2 fold change was -0.218. The result for “RMI2 (peptide sequence: SPPLKVLAEQLR, peptide start residue: 20) (UniProt Q96E14)” reads 0.283. With “PPP2R3C (peptide sequence: LATPNTCPNK, peptide start residue: 11) (UniProt Q969Q6)”, the log2 fold change turned out to be 0.588. Take “UniProt Q96AV8 (peptide sequence: YPSYPLSTEK, peptide start residue: 158)”: the log2 fold change was 0.658. “UniProt Q96FZ2 (peptide sequence: LHFEKDADSSER, peptide start residue: 57)”: the log2 fold change is -0.256. “UniProt Q92831 (peptide sequence: GKPVVEGSLEK, peptide start residue: 202)”: the log2 fold change turned out to be 0.403.

For “ZNF622 (peptide sequence: NVVAVGTGGR, peptide start residue: 157) (UniProt Q969S3)”, the log2 fold change is -0.0896.

Regarding “CENPT (peptide sequence: SAHIQASGHLEEQTPR, peptide start residue: 72) (UniProt Q96BT3)”, the log2 fold change is -0.411. Turning to “UniProt Q96BA8 (peptide sequence: TLIAEGYPIPTKLPLTK, peptide start residue: 269)”, the log2 fold change was 0.815. For “MRPL53 (peptide sequence: VQFCPFEK, peptide start residue: 18) (UniProt Q96EL3)”, the log2 fold change came to 0.18. In the case of “SEH1L (peptide sequence: VWDKSESGDWHCTASWK, peptide start residue: 38) (UniProt Q96EE3)”, the log2 fold change is -0.485.

As for “ZNF428 (peptide sequence: AAQPPAQPCQLCGR, peptide start residue: 85) (UniProt Q96B54)”, the log2 fold change was -0.169.

“DCUN1D1 (peptide sequence: TAVSCLSQNDWK, peptide start residue: 25) (UniProt Q96GG9)”: the log2 fold change was -0.107.

For the target “GCDH (peptide sequence: AAPEMVSLLKR, peptide start residue: 362) (UniProt Q92947)”, the log2 fold change came to 0.369. Take “S100PBP (peptide sequence: SLVVSTSSNK, peptide start residue: 268) (UniProt Q96BU1)”: the log2 fold change was -0.178.

“UPF1 (peptide sequence: IPSEQEQLR, peptide start residue: 245) (UniProt Q92900)”: the log2 fold change worked out at 0.272. As for “AKT1S1 (peptide sequence: LNTSDFQK, peptide start residue: 244) (UniProt Q96B36)”, the log2 fold change is -0.06. Regarding “LTV1 (peptide sequence: RNEQLTLHDER, peptide start residue: 252) (UniProt Q96GA3)”, the log2 fold change is 0.0991. “UniProt Q96GE5 (peptide sequence: NTLPGVGPYESR, peptide start residue: 95)”: the log2 fold change came out at 0.0852. Take “GNPNAT1 (peptide sequence: VEDVVVSDECR, peptide start residue: 119) (UniProt Q96EK6)”: the log2 fold change is -0.00237. Take “MSI2 (peptide sequence: SRGFGFVTFADPASVDK, peptide start residue: 61) (UniProt Q96DH6)”: the log2 fold change was -0.649.

For the target “USP13 (peptide sequence: FTFGLDWVPK, peptide start residue: 576) (UniProt Q92995)”, the log2 fold change was determined as 0.111. For the target “CCDC124 (peptide sequence: TIEDAIAVLSVAEEAADR, peptide start residue: 146) (UniProt Q96CT7)”, the log2 fold change was found to be 0.2.

Regarding “UniProt Q96EU6 (peptide sequence: HLSGEEHEK, peptide start residue: 159)”, the log2 fold change was 0.426. With “BORCS8 (peptide sequence: MEEPEMQLK, peptide start residue: 1) (UniProt Q96FH0)”, the log2 fold change turned out to be 0.154.

For the target “TNPO1 (peptide sequence: FSDQFPLPLK, peptide start residue: 880) (UniProt Q92973)”, the log2 fold change was -0.319. The result for “RUNDC1 (peptide sequence: VKEQLVEQLK, peptide start residue: 262) (UniProt Q96C34)” reads 0.778; that for “TRIM44 (peptide sequence: VIADEEQK, peptide start residue: 269) (UniProt Q96DX7)”, -0.118. As for “DVL3 (peptide sequence: AMASPESGLEVR, peptide start residue: 418) (UniProt Q92997)”, the log2 fold change was -0.265. On to “UniProt Q96FT9 (peptide sequence: RAQQESAQAENHLNGK, peptide start residue: 25)”, for which the log2 fold change was determined as 0.105. For the target “DNAJA3 (peptide sequence: GGPTVDPEELFR, peptide start residue: 176) (UniProt Q96EY1)”, the log2 fold change was -0.21. “UniProt Q96EY4 (peptide sequence: EKLKNEK, peptide start residue: 38)”: the log2 fold change turned out to be 0.592. As for “JARID2 (peptide sequence: KENGPTLSTISALLDELRDTELR, peptide start residue: 1072) (UniProt Q92833)”, the log2 fold change was -0.419.

The record behind these values is the supplement of paper PMC12819154, “High-throughput peptide-centric local stability assay extends protein–ligand identification to membrane proteins, tissues and bacteria” (Nature Structural & Molecular Biology, 2025).
